Assay results taken from patent publication US20250154171A1, “RAS INHIBITORS” (Revolution Medicines, Inc., priority 2023, published 2025).
Some entries share one result that the patent states for a list of compounds.

The chains behind the UniProt entries cited, without tags or fusion partners. Where a name states a change or a piece, a line headed by the entry shows the natural chain unless it says otherwise. Residues count along the entry.
UniProt P01116, 1-188 isoform P01116-2 G12V: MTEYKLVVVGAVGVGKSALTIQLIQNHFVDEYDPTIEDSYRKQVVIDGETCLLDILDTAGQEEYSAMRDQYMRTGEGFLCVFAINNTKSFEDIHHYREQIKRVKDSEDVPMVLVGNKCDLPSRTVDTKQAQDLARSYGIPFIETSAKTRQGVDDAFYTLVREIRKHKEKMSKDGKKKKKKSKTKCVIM
UniProt P01116, 1-188 isoform P01116-2 G12A: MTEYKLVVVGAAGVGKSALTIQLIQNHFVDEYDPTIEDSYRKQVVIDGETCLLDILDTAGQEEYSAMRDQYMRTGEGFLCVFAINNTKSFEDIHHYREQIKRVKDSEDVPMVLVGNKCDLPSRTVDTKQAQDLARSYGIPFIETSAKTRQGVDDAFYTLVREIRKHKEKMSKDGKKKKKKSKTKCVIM
UniProt P62937, whole entry: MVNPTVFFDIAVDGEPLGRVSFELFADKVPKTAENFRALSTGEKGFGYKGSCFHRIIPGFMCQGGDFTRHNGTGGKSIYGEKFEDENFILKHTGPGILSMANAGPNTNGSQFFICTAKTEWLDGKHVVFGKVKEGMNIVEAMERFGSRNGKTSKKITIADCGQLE

Assays:
K-RasG12V = K-RasG12V (Homo sapiens, UniProt P01116+P62937, G12V); experiment: Disruption of BRAF RBD interaction with K-Ras (TR-FRET / MOA assay), K-RasG12V; format: biochemical; details: TR-FRET with cyclophilin A and GST-BRAF RBD, read-out: IC50 with respect to K-RasG12V (disruption of BRAF RBD interaction)
K-RasG12A = K-RasG12A (Homo sapiens, UniProt P01116+P62937, G12A); experiment: Disruption of BRAF RBD interaction with K-Ras (TR-FRET / MOA assay), K-RasG12A; format: biochemical; details: TR-FRET with cyclophilin A and GST-BRAF RBD, read-out: IC50 with respect to K-RasG12A (disruption of BRAF RBD interaction)
Capan-1 (K-Ras G12V) = experiment: CellTiter-Glo cell viability assay, Capan-1; format: cell-based, human; details: 5-day treatment, Capan-1 and/or NCI-H2009 versus A375

CO[C@@H](C)c1ncccc1-c1c2c3cc(ccc3n1C1CN(C3CC3)C1)-c1coc(n1)[C@@H](N1CC3(CCCN3C)C1)[C@H](NC(=O)[C@@H]1[C@@H](C)[C@H]1C1CC1)C(=O)N1CCC[C@H](N1)C(=O)OCC(C)(C)C2 (atropisomer, axis not shown) [Example A882]
IC50 (K-RasG12V): < 1000 nM | IC50 (K-RasG12A): < 1000 nM | decrease in cell viability with respect to Capan-1 and/or NCI-H2009 versus wild-type KRAS (A375) (Capan-1 (K-Ras G12V)): greater decrease in cell viability

CO[C@@H](C)c1ncccc1-c1c2c3cc(ccc3n1C1CN(C3CC3)C1)-c1coc(n1)[C@@H](N1CC3(CCCN3C)C1)[C@H](NC(=O)[C@H]1[C@H](C)[C@@H]1C(C)C)C(=O)N1CCC[C@H](N1)C(=O)OCC(C)(C)C2 (atropisomer, axis not shown) [Example A883]
IC50 (K-RasG12V): < 1000 nM | IC50 (K-RasG12A): < 1000 nM | decrease in cell viability with respect to Capan-1 and/or NCI-H2009 versus wild-type KRAS (A375) (Capan-1 (K-Ras G12V)): greater decrease in cell viability

CO[C@@H](C)c1ncccc1-c1c2c3cc(ccc3n1C1CN(C3CC3)C1)-c1csc(n1)[C@@H](N1CC3(CCCN3C)C1)[C@H](NC(=O)[C@H]1[C@H](C)[C@@H]1C1CC1)C(=O)N1CCC[C@H](N1)C(=O)OCC(C)(C)C2 (atropisomer, axis not shown) [Example A884]
IC50 (K-RasG12V): < 1000 nM | IC50 (K-RasG12A): < 1000 nM | decrease in cell viability with respect to Capan-1 and/or NCI-H2009 versus wild-type KRAS (A375) (Capan-1 (K-Ras G12V)): greater decrease in cell viability

CO[C@@H](C)c1ncccc1-c1c2c3cc(ccc3n1[C@H]1C[C@@H]3CN(C)C[C@@H]3C1)-c1csc(n1)[C@@H](N1CC3(CCN3C)C1)[C@H](NC(=O)[C@H]1[C@H](C)[C@@H]1C)C(=O)N1CCC[C@H](N1)C(=O)OCC(C)(C)C2 (atropisomer, axis not shown) [Example A886]
IC50 (K-RasG12V): < 1000 nM | IC50 (K-RasG12A): < 1000 nM | decrease in cell viability with respect to Capan-1 and/or NCI-H2009 versus wild-type KRAS (A375) (Capan-1 (K-Ras G12V)): greater decrease in cell viability

CO[C@@H](C)c1ncccc1-c1c2c3cc(ccc3n1[C@H]1C[C@@H]3CN(C)C[C@@H]3C1)-c1csc(n1)[C@@H](N1CC3(CCCN3C)C1)[C@H](NC(=O)[C@H]1[C@H](C)[C@@H]1C)C(=O)N1CCC[C@H](N1)C(=O)OCC(C)(C)C2 (atropisomer, axis not shown) [Example A887]
IC50 (K-RasG12V): < 1000 nM | IC50 (K-RasG12A): < 1000 nM | decrease in cell viability with respect to Capan-1 and/or NCI-H2009 versus wild-type KRAS (A375) (Capan-1 (K-Ras G12V)): greater decrease in cell viability

CO[C@@H](C)c1ncccc1-c1c2c3cc(ccc3n1[C@H]1C[C@@H]3CN(C)C[C@@H]3C1)-c1csc(n1)[C@@H](N1CC3(CCCN3C)C1)[C@H](NC(=O)[C@@H]1[C@@H](C)[C@H]1c1ccncn1)C(=O)N1CCC[C@H](N1)C(=O)OCC(C)(C)C2 (atropisomer, axis not shown) [Example A888]
IC50 (K-RasG12V): < 1000 nM | IC50 (K-RasG12A): < 1000 nM | decrease in cell viability with respect to Capan-1 and/or NCI-H2009 versus wild-type KRAS (A375) (Capan-1 (K-Ras G12V)): greater decrease in cell viability

CO[C@@H](C)c1ncccc1-c1c2c3cc(ccc3n1[C@@H]1C[C@@H]3CN(C)C[C@@H]3C1)-c1csc(n1)[C@@H](N1CC3(CCCN3C)C1)[C@H](NC(=O)[C@@H]1[C@@H](C)[C@H]1c1ccncn1)C(=O)N1CCC[C@H](N1)C(=O)OCC(C)(C)C2 (atropisomer, axis not shown) [Example A889]
IC50 (K-RasG12V): < 1000 nM | IC50 (K-RasG12A): < 1000 nM | decrease in cell viability with respect to Capan-1 and/or NCI-H2009 versus wild-type KRAS (A375) (Capan-1 (K-Ras G12V)): greater decrease in cell viability

CO[C@@H](C)c1ncccc1-c1c2c3cc(ccc3n1C1CN(C3CC3)C1)-c1csc(n1)[C@@H](N1CC3(CC[C@H](F)C3)C1)[C@H](NC(=O)[C@H]1[C@H](C)[C@@H]1C)C(=O)N1CCC[C@H](N1)C(=O)OCC(C)(C)C2 (atropisomer, axis not shown) [Example A894]
IC50 (K-RasG12V): < 1000 nM | IC50 (K-RasG12A): < 1000 nM | decrease in cell viability with respect to Capan-1 and/or NCI-H2009 versus wild-type KRAS (A375) (Capan-1 (K-Ras G12V)): greater decrease in cell viability

CO[C@@H](C)c1ncccc1-c1c2c3cc(ccc3n1C1CN(C3CC3)C1)-c1csc(n1)[C@@H](N1CC3(CCN3c3ccncn3)C1)[C@H](NC(=O)[C@H]1[C@H](C)[C@@H]1C)C(=O)N1CCC[C@H](N1)C(=O)OCC(C)(C)C2 (atropisomer, axis not shown) [Example A895]
IC50 (K-RasG12V): < 1000 nM | IC50 (K-RasG12A): < 1000 nM | decrease in cell viability with respect to Capan-1 and/or NCI-H2009 versus wild-type KRAS (A375) (Capan-1 (K-Ras G12V)): greater decrease in cell viability
